Measurements: publication PMC7862700
The entries are a selection whose mix differs from that of the whole data set. For some assays here: At the low end of the ranking the order means little. The list shows a part of the results. For some assays here: The source does not settle which construct or isoform was used.

Experiments:
Assay in all cases: DAPPL (digital affinity profiling via proximity ligation, sequencing)
Settings in all cases: 10 mM Tris-HCl pH 7.5, 50 mM NaCl, 1 mM DTT, 4% glycerol, room temperature, 30 min; GST-TFs on glutathione beads, 16-mer random dsDNA library, 0.1% …; high values mean tight binding; double strand, one strand shown; scale: fold enrichment (6-mer frequency, TF over GST control)
[1] = molecular target: T1, GABPA (UniProt Q06546)
T1 sequence: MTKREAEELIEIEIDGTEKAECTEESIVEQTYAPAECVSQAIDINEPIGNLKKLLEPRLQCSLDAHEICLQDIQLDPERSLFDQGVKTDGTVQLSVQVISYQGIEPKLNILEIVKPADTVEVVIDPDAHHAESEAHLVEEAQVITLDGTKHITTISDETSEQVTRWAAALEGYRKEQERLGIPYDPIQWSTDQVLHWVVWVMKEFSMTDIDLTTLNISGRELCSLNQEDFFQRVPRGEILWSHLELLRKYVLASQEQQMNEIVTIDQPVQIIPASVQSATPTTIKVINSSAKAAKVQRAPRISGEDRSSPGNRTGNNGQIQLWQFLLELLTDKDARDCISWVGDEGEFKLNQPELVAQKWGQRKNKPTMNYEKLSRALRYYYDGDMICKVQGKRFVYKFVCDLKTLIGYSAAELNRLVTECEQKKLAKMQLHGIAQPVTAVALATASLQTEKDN

[2] = molecular target: T2, ETS1 (UniProt P14921)
T2 sequence: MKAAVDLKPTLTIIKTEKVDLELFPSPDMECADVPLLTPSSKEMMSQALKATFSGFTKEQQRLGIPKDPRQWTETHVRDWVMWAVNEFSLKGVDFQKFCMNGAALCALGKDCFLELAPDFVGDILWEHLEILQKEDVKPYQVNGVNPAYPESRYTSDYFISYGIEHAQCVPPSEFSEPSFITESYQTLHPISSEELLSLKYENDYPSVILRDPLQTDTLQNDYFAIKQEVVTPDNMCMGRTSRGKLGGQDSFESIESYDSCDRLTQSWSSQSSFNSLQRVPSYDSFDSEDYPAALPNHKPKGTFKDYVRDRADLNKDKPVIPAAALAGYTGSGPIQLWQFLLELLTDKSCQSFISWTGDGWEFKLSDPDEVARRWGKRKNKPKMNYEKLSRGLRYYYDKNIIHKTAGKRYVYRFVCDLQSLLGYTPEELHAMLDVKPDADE

[3] = molecular target: T3, SPDEF (UniProt O95238)
T3 sequence: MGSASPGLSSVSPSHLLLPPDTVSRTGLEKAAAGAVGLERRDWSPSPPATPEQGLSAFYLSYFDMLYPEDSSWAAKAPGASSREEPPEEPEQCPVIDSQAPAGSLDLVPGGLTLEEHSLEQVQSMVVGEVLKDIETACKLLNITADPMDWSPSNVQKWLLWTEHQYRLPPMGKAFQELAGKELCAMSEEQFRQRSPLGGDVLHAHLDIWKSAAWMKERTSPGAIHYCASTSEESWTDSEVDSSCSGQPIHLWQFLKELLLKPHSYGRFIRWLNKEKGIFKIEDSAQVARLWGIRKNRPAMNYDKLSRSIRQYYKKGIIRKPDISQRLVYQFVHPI

| Sequence | binding signal [1] | binding signal [2] | binding signal [3] |
| --- | --- | --- | --- |
| GGAACA | 0.983 | 1.08 | 1.15 |
| GCCTAT | 1.21 | 1.27 | 1.27 |
| TTATAC | 1.39 | 1.29 | 1.38 |
| ATACCT | 1.07 | 1.11 | 1.04 |
| TTTGCG | 1.26 | 1.22 | 1.2 |
| TATGAA | 1.21 | 1.18 | 1.16 |
| CCATTT | 1.42 | 1.27 | 1.21 |
| GAAAGA | 0.97 | 0.981 | 0.998 |
| TGCTGT | 0.992 | 1.02 | 0.984 |
| AAATGG | 1.49 | 1.45 | 1.41 |
| TCCTTG | 1.25 | 1.4 | 1.48 |
| TCCAAT | 1.18 | 1.25 | 1.2 |
| TTTGAA | 1.2 | 1.19 | 1.15 |
| ACGGCC | 1.12 | 1.06 | 1.17 |
| AAGCGA | 0.958 | 1.04 | 0.994 |
| ATTGAA | 1.07 | 1.1 | 1.07 |
| CCGAAG | 1.12 | 1.09 | 0.901 |
| TATCGA | 1.32 | 1.37 | 1.34 |
| CCCATT | 1.46 | 1.3 | 1.19 |
| AATAAG | 1.31 | 1.28 | 1.26 |
| ACCCCG | 1.29 | 1.22 | 1.15 |

Some values from the list.
TTATAC – binding signal [3]: 1.38
ATTGAA – binding signal [3]: 1.07

Next records

| Sequence | binding signal [1] | binding signal [2] | binding signal [3] |
| --- | --- | --- | --- |
| AACCAA | 1.25 | 1.19 | 1.21 |
| GCTCTG | 1.03 | 1.16 | 1.06 |
| CCTACA | 1.33 | 1.22 | 1.17 |
| AAGTCA | 1.15 | 1.19 | 1.18 |
| TTCGTT | 1.33 | 1.39 | 1.39 |
| CTCAAA | 1.16 | 1.11 | 1.14 |
| CCACTT | 1.81 | 1.79 | 1.69 |
| CTCTCA | 1.52 | 1.49 | 1.32 |
| ATGTCT | 1.36 | 1.24 | 1.26 |
| TTTTGA | 1.13 | 1.11 | 1.05 |
| CCTAGA | 0.982 | 0.919 | 1.01 |
| GTCCTA | 1.22 | 1.29 | 1.29 |
| TAGGCT | 1.3 | 1.19 | 1.24 |
| TCTCAC | 1.43 | 1.48 | 1.23 |
| ACTCGC | 1.18 | 1.13 | 0.934 |
| ACGATC |  | 1.13 | 0.984 |
| GTACTT |  | 1.94 | 2.57 |
| CTAACG | 1.09 | 1.17 | 1.16 |
| TTACCC |  | 1.4 | 1.33 |
| ATGTAT | 1.27 | 1.44 | 1.65 |
| CTAAGA | 1.16 | 1.11 | 1.15 |

Another view of some results above:
TTCGTT
  binding signal [1]: 1.33
  binding signal [2]: 1.39
  binding signal [3]: 1.39
CTCAAA
  binding signal [1]: 1.16
  binding signal [2]: 1.11
  binding signal [3]: 1.14

(further entries)

| Sequence | binding signal [1] | binding signal [2] | binding signal [3] |
| --- | --- | --- | --- |
| CCGGTA |  | 1.51 | 1.96 |
| CCAATG |  | 1.24 | 1.02 |
| CTGAGC |  | 1.06 | 1.16 |
| TTGGCC | 1.23 | 1.08 | 1.06 |
| TTATCA | 1.05 | 1.11 | 0.984 |
| GGTCCT | 0.954 | 0.992 | 1.1 |
| TATTCG |  | 1.21 | 1.1 |
| TTTTGC | 1.38 | 1.37 | 1.35 |
| TCCTCT | 1.57 | 1.6 | 1.58 |
| CGTTCA |  | 1.21 | 1.14 |
| CCTCTA | 1.39 | 1.52 | 1.32 |
| CGACGT |  | 1.08 | 1.02 |
| CTGCCC | 1.29 | 1.32 | 1.23 |
| CTACTT | 1.72 | 1.74 | 1.79 |
| CTGCAA | 1.2 | 1.28 | 1.11 |
| CACGCT |  | 1.3 | 1.35 |
| TTATGA | 1.22 | 1.13 | 1.13 |
| GTCACA |  | 1.08 | 1.08 |
| AAAAGG | 1.25 | 1.13 | 1.07 |
| CCTATT |  | 1.65 | 1.51 |
| CCGATG |  | 1.09 | 0.963 |

| Sequence | binding signal [1] | binding signal [2] | binding signal [3] |
| --- | --- | --- | --- |
| ATGCTT | 1.26 | 1.29 | 1.32 |
| AATCGA |  | 1.08 | 0.927 |
| ATGGAC | 1.21 | 1.2 | 1.17 |
| ATCAGC | 0.958 | 0.992 | 0.873 |
| AAACGG |  | 1.22 | 1.25 |
| TAAATA | 1.21 | 1.32 | 1.15 |
| GAAATC | 1.34 | 1.39 | 1.4 |
| ACCCGC | 1.35 | 1.31 | 1.16 |
| AATTGG | 1.31 | 1.43 | 1.31 |
| CATTTC | 1.64 | 1.61 | 1.75 |
| TACACC | 1.14 | 1.2 | 1.24 |
| TGTCCA | 1.1 | 1.13 | 1.13 |
| TCGCAC | 1.09 | 1.15 | 1.05 |
| CTTGCA |  | 1.49 | 1.49 |
| TGTCTC |  | 1.27 | 1.33 |
| ACTTCA |  | 1.37 | 1.37 |
| TGCGCG |  | 1.07 | 0.972 |
| ATTCCG |  | 1.79 | 1.85 |
| GTCCAC |  | 1.04 | 0.933 |
| TGTGCT |  | 1.14 | 1.31 |
